Data taken from US9623015B2, “Combination of an anti-cancer agent such as a tyrosinekinase inhibitor and a STAT5 antagonist, preferably a thiazolidinedione, for eliminating hematologic cancer stem cells in vivo and for preventing hematologic cancer relapse” (Commissariat à L'Energie Atomique et aux Energies …, priority 2012, dated 2017).
For at least one compound, name, drawing or mass did not settle the structure.

What was measured:
[1] = system: K562 cells; assay: K562 cell proliferation ([3H]thymidine incorporation); assay type: cell-based; settings: pioglitazone at pharmacological doses
[2] = system: CD34+ CP-CML cells; assay: CFC assay with CD34+ CP-CML cells from patients at diagnosis; assay type: cell-based, human; settings: abolished when STAT5B was overexpressed
[3] = system: CP-CML LTC-ICs; assay: LTC-IC assay with limiting dilution analysis; assay type: cell-based, human; settings: CP-CML vs normal CD34+ cells
Method: Colony Forming Cell (CFC) and Long Term Culture—Initiating Cell (LTC-IC) assays. […] Cells were scored and collected after 14 day incubation at 37° C. and 5% CO2. After scoring, colonies were washed with PBS and kept frozen in RNAlater® (Invitrogen) for subsequent analysis. […] After five weeks with weekly change of one half medium volume, all cells were transferred in alpha-MEM based methylcellulose medium (GF H4434, Stemcell technologies) to determine the total clonogenic cell content of each LTC. LTC-IC frequencies were determined using the L-Calc software (Stemcell technologies).

[4] = system: STAT5; assay: STAT5 phosphorylation (flow cytometry) and STAT5 protein (Western blot) in K562 cells; assay type: cell-based; settings: pioglitazone 10 μM
Method: Intracellular STAT5 phosphorylation assays. […] Cells were fixed and permeabilized using Cytofix/Cytoperm kit (BD Pharmingen) and stained with Alexa Fluor® 488-anti-phospho-STAT5 mAb (BD Phosflow) or Alexa Fluor® 488-isotype-matched control to obtain fluorescence minus comparative in each experiment. Analysis was carried on a minimal number of 50,000 events in the viable cell gate. […] (untreated cells p-STAT5 MFI-non treated cells isotype-control MFI)-(drug treated cells p-STAT5 MR-drug treated cells isotype-control MFI). Western blot analysis. For STAT5 protein analysis, K562 cells (2.5×10^5) were lysed in RIPA lysis buffer on ice. […] Proteins were transferred to Hybond N+ filters (Amersham). Membranes were probed with the following antibodies: STAT5 (sc-1656), actin (sc-8432), and goat anti-mouse IgG-HRP (sc-2005) (Santa Cruz Biotechnology Inc.). Antibody binding was detected by the enhanced chemiluminescence ECL+ (Amersham).

[5] = system: CML patients; assay: BCR-ABL/ABL RT-qPCR follow-up of three CML patients given pioglitazone on imatinib; assay type: in vivo, human; settings: Patient 3; CMR(Slog), 1 year after initiation of pioglitazone
[6] = system: STAT5 mRNA; assay: ACTIM companion study: STAT5 expression in bone marrow; assay type: in vivo, human; settings: M6 and M12 compared to the baseline values
[7] = system: bone marrow mononuclear cells; assay: ACTIM companion study: clonogenic activity of bone marrow mononuclear cells; assay type: in vivo, human; settings: M6 and M12
[8] = system: CP-CML CD34+ cells; settings: liquid culture without cytokines

CCc1ccc(CCOc2ccc(CC3SC(=O)NC3=O)cc2)nc1 (centres unmarked) [pioglitazone]
cell growth of the Bcr-Abl positive cell line K562 [1]: inhibits cell growth
clonogenicity of CP-CML CD34+ cells [2]: Decreased clonogenicity
toxicity for CML LTC-IC vs normal LTC-ICs [3]: more inhibitory/cytotoxic for CML LTC-IC than for normal LTC-ICs
action on STAT5 protein levels [4]: acts slowly (days) by decreasing STAT5 protein levels
BCR-ABL mRNA expression by RT-qPCR in CFC pools [5]: detectable but not quantifiable
Stat5 mRNA quantification in patient samples [6]: significantly diminished
clonogenic potential in bone marrow cells [7]: reduction of the clonogenic potential
effect on cell cycle status / quiescence [8]: triggering exit from quiescence and a greater rate of cell proliferation
